The target of the test is high mobility group box-1 (HMGB1) (human (endogenous in HAECs)) (UniProt P09429). Nature of the test: co-IP; HAEC lysates in 0.5% Triton X-100 with protease and phosphatase inhibitors; anti-HMGB1 antibody (5 ug; IgG as control) on protein A/G magnetic beads, overnight at 4 °C, three washes with lysis buffer; immunoblot; cells under LSS or transfected with pri-EPHB2. (Immunoblotting shows a protein as a band on a membrane.)

Protein sequences, listed by entry. Tags and fused reporters are not part of them. Residues count along the entry.
UniProt P09429: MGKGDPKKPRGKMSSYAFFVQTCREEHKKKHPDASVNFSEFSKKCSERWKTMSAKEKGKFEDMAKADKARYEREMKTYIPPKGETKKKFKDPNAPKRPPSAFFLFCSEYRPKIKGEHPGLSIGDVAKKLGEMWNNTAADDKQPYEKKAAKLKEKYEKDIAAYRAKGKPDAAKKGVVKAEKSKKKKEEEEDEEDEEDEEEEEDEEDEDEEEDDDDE
UniProt P29323, residues 19-1055: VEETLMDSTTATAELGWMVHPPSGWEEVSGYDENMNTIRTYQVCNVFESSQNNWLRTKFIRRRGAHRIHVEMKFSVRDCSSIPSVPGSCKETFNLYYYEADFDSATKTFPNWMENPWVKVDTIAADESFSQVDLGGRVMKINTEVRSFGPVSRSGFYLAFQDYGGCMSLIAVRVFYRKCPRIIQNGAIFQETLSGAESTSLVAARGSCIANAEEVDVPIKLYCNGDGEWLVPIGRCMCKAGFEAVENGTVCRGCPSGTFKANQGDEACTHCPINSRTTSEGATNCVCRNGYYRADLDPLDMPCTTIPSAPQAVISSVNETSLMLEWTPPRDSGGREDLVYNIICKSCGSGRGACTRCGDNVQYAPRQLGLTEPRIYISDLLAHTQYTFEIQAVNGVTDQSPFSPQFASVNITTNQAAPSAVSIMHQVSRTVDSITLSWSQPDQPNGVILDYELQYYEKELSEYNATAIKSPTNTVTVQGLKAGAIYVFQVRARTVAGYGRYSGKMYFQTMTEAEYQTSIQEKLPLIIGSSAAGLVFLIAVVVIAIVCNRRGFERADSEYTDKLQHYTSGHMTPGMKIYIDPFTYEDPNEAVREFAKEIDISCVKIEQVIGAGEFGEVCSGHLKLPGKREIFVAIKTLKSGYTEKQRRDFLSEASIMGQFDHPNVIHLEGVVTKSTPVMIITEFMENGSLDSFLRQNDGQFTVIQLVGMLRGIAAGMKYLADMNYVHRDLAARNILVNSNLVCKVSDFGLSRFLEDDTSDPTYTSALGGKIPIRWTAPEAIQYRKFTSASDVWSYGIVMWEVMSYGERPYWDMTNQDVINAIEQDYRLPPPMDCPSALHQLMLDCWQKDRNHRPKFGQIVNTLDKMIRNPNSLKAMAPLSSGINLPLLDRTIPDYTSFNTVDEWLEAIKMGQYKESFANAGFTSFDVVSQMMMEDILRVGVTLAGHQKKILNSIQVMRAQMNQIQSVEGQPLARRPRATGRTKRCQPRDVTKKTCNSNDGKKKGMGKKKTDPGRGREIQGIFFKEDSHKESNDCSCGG

No constants are given. Whether binding was seen depends on the method and setting. Binding seen in cells or lysates may run through a third protein. Some results given as binding are weak or reduced against the parent protein; the word gives no strength.

Turning to “EPHB2 overexpressed from pLenti-CMV-GFP-Puro-EPHB2 (pri-EPHB2) (from UniProt P29323 19-1055) (receptor)”, the binding result is listed as “binds”.

The values above are taken from PMC9076621.
